Some of the results follow.

Protein sequences, listed by entry. Tags and fused reporters are not part of them. Lines headed by an entry give the natural chain unless they say otherwise; changes in a name come on top.
UniProt Q9Y4Y9: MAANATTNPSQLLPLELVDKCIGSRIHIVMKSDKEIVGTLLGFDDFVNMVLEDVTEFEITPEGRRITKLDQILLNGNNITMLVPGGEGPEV
UniProt O95777: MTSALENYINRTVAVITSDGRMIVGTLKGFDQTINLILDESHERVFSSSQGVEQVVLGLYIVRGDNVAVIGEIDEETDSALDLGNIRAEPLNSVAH
UniProt P28482, whole entry, looked up: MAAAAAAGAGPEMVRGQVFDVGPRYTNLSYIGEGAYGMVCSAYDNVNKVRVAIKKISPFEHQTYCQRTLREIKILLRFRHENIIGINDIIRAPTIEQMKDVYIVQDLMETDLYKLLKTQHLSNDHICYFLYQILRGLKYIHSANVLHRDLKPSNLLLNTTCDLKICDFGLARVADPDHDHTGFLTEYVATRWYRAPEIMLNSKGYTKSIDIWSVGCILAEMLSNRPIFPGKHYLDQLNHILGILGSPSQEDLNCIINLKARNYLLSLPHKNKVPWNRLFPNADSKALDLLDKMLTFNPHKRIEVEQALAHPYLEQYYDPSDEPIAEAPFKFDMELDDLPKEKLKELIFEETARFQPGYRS
UniProt Q7Z3D4: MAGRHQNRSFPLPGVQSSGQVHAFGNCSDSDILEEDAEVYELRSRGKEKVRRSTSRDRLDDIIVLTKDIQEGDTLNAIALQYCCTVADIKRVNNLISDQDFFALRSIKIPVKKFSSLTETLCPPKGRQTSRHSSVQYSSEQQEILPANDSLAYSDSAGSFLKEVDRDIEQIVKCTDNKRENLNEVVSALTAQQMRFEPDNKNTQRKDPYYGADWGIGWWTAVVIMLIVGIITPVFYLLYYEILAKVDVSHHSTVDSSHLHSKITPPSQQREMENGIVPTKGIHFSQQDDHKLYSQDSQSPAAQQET
UniProt Q9HD34: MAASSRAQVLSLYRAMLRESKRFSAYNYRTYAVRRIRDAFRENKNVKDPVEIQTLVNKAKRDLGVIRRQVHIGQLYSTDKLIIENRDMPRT
UniProt Q99698: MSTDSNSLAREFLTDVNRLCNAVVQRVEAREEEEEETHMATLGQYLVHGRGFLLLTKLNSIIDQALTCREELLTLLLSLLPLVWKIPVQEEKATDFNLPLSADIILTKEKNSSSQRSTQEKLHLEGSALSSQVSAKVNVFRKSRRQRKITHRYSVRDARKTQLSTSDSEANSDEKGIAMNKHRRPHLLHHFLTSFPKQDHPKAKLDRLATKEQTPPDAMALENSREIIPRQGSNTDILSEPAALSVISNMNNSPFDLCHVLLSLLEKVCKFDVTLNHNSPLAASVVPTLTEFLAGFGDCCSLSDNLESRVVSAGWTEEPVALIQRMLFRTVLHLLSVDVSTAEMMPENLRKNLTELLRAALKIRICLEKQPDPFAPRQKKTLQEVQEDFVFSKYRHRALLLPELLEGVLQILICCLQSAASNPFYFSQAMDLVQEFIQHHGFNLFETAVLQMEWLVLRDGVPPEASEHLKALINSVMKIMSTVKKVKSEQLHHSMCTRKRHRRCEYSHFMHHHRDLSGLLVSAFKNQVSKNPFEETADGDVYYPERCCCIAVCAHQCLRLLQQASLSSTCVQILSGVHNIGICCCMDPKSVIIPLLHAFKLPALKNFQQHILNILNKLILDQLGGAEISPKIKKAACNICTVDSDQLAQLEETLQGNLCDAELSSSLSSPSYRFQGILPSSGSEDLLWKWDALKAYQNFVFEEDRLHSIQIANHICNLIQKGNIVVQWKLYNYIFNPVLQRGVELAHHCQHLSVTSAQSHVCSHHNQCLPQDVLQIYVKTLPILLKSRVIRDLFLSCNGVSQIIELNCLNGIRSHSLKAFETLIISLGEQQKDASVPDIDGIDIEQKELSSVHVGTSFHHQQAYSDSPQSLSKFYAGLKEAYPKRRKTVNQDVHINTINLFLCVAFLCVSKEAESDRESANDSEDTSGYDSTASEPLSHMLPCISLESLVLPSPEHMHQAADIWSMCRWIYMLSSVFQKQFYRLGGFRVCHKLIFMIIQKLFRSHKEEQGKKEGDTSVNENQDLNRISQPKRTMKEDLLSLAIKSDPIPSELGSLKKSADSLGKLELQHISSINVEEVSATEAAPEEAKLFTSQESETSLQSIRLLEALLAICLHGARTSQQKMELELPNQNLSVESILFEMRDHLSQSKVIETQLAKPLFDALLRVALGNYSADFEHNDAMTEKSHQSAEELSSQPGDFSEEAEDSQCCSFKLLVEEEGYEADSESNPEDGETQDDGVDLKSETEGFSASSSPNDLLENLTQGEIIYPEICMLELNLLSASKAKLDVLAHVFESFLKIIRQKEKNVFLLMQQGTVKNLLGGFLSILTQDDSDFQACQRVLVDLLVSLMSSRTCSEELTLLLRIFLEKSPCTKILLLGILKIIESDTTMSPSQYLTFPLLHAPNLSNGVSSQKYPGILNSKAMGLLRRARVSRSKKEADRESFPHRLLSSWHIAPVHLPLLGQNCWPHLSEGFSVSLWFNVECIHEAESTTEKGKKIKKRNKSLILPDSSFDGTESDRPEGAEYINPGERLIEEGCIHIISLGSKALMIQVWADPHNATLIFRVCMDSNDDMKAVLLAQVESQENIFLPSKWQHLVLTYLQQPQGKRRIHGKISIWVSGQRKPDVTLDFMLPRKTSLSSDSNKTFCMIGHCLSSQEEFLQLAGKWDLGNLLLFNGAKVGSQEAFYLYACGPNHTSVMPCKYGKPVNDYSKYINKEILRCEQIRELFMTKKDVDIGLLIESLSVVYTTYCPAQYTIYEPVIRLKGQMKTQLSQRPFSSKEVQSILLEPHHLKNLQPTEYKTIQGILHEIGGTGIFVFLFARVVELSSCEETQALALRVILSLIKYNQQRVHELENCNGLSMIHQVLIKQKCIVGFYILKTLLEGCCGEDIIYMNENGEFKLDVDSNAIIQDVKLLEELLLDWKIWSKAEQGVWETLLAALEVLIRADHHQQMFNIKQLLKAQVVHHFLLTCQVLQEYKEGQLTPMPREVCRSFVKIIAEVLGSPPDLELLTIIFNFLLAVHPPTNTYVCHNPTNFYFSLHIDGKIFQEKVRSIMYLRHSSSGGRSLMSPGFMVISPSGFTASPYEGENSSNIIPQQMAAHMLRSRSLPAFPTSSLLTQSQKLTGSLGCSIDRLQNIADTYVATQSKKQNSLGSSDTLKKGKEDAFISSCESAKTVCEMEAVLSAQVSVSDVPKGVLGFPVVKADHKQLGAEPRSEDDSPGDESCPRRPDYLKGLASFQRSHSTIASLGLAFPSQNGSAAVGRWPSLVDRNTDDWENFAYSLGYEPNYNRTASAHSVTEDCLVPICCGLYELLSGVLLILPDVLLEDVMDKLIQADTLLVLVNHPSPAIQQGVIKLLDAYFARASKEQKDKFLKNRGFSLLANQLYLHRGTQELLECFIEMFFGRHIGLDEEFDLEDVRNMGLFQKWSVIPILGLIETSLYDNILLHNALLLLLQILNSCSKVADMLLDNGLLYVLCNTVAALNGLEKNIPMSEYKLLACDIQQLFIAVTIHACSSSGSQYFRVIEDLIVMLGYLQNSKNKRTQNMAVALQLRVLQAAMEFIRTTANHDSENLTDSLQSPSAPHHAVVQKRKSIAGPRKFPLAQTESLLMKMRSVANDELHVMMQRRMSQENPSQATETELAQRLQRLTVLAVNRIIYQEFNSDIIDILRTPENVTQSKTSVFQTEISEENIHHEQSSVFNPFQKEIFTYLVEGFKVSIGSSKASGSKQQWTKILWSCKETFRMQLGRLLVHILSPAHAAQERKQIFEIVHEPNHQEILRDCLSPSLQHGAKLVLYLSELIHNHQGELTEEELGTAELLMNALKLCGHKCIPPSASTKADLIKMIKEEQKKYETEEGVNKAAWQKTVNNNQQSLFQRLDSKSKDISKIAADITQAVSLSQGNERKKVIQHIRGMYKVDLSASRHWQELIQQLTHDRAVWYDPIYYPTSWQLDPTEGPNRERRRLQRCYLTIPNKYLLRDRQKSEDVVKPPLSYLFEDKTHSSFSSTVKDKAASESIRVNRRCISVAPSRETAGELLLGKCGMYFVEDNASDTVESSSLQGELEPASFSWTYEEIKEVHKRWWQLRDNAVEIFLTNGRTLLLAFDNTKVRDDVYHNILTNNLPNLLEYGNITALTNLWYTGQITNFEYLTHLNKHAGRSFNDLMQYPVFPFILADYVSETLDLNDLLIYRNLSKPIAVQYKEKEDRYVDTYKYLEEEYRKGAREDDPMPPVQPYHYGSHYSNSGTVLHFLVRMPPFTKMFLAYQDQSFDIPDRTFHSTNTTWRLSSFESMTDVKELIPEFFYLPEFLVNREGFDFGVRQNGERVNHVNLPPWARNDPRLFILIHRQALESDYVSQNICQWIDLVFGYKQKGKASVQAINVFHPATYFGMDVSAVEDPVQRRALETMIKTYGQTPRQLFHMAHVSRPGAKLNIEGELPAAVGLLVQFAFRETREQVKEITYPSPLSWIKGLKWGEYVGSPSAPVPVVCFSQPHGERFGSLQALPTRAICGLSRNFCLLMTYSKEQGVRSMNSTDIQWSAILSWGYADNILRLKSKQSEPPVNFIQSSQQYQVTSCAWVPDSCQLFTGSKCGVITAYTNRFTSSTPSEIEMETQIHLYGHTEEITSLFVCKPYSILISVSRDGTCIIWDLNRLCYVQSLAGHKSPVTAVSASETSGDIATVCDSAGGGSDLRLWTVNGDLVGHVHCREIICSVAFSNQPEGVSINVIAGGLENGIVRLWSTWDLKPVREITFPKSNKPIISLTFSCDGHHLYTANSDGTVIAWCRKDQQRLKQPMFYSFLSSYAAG
UniProt Q8N5G2: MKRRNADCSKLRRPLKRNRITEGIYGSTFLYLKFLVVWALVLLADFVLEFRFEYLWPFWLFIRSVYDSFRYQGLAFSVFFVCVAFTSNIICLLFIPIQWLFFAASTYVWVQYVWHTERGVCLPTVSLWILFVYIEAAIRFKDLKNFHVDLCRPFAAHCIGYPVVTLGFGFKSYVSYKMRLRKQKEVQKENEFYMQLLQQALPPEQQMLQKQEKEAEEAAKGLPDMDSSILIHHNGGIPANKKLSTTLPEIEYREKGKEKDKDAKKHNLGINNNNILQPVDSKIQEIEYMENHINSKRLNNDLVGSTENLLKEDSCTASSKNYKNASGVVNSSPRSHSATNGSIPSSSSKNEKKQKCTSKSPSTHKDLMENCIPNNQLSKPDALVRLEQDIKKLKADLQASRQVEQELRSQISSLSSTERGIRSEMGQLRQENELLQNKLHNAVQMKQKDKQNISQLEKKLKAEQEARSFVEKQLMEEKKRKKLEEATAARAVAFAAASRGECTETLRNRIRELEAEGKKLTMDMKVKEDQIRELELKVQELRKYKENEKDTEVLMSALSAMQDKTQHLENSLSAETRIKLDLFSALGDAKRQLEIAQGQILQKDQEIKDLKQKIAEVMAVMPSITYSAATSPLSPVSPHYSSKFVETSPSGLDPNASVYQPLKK
UniProt Q9Y4K4: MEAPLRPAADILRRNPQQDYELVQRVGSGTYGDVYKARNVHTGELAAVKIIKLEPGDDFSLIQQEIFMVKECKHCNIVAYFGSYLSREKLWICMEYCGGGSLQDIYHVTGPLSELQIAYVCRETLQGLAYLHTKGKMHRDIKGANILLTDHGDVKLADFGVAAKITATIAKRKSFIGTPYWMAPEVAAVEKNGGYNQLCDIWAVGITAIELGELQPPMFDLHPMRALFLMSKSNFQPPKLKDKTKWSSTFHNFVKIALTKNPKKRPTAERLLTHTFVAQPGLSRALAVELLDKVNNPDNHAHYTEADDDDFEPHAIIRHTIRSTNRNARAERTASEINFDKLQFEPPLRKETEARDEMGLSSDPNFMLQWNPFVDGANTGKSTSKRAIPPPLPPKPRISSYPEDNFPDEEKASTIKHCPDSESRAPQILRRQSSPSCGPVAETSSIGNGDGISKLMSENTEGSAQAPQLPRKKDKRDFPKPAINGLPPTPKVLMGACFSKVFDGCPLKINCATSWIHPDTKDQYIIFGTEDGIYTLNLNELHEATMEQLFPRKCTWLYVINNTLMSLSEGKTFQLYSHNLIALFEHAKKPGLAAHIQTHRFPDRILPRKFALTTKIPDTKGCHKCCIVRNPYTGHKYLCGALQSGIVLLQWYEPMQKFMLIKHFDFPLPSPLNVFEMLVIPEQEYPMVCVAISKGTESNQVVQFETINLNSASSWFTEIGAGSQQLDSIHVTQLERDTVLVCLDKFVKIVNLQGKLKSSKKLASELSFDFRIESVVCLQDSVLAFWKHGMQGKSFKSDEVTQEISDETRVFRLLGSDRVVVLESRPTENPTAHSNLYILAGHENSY
UniProt P43355: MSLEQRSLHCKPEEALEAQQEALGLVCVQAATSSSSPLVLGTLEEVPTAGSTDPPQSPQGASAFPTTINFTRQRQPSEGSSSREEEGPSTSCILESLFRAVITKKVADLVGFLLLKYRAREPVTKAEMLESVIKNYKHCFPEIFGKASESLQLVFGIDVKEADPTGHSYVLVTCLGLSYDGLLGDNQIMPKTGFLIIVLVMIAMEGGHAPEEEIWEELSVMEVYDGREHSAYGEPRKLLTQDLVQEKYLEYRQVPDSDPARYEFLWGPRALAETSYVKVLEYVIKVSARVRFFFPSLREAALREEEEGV

Compound in one experiment: Cc1cccc(CC(=O)N2CCc3c2ccc(-c2cn(C)c4ncnc(N)c24)c3F)n1
Briefly: log2 fold change, soluble protein after heating vs DMSO (PISA); higher = thermal stabilisation; K562 cells, 10 uM, 30 min; active = over 0.2 and 3.5 SD of the protein, either way, in both replicates (recomputed). In a few lines: (§1)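 K562 cells at 2×10^6 cells/mL were given 10 μM compound for 30 min. Aliquots then went through 3 min of heating across 48°C-58°C, were pooled, and were extracted in PBS with 0.5% NP-40 at 4°C, and the supernatant after 21,000xg for 90 min was quantified by TMTpro 16plex LC-MS/MS with channel sums equalised. Thermal stability relative to control samples, from duplicates, is given as log2 fold change.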
As to MANEA (UniProt Q5SRI9), the log2 fold change was inactive: -0.162.

As for LSM5 (UniProt Q9Y4Y9), the log2 fold change is inactive: 0.301.

In the case of LSM8 (UniProt O95777), the log2 fold change is inactive: -0.012.

As to MAFF (UniProt Q9ULX9), the log2 fold change was inactive: -0.008.

Take MAPK1 (UniProt P28482): the log2 fold change was inactive: -0.005.

For LSM6 (UniProt P62312), the log2 fold change was inactive: 0.203.

For LYSMD3 (UniProt Q7Z3D4), the log2 fold change is inactive: -0.123.

On to LYRM4 (UniProt Q9HD34), for which the log2 fold change is inactive: 0.011.

Take MAP7D3 (UniProt Q8IWC1): the log2 fold change was inactive: -0.058.

In the case of LYN (UniProt P07948), the log2 fold change was inactive: 0.008.

As for MAP11 (UniProt Q8WVR3), the log2 fold change is inactive: 0.018.

Take LYST (UniProt Q99698): the log2 fold change was inactive: -0.397.

With MACO1 (UniProt Q8N5G2), the log2 fold change is inactive: -0.045.

Take MAP4K5 (UniProt Q9Y4K4): the log2 fold change was inactive: -0.001.

In the case of MAP3K10 (UniProt Q02779), the log2 fold change is inactive: -0.042.

For the target MAPK6 (UniProt Q16659), the log2 fold change was inactive: -0.223.

Turning to LTBR (UniProt P36941), the log2 fold change was inactive: 0.002.

As to LRRC8E (UniProt Q6NSJ5), the log2 fold change was inactive: -0.168.

Take MAP3K2 (UniProt Q9Y2U5): the log2 fold change is inactive: 0.044.

Take MAP3K4 isoform 2 (UniProt Q9Y6R4): the log2 fold change was inactive: -0.095.

For the target MAD1L1 (UniProt Q9Y6D9), the log2 fold change was inactive: -0.03.

With MAGEA1 (UniProt P43355), the log2 fold change was inactive: 0.029.

On to MAP3K20 (UniProt Q9NYL2), for which the log2 fold change was inactive: 0.039.

Compound in the next experiment: Cc1cn(-c2cc(NC(=O)c3ccc(C)c(Nc4nccc(-c5cccnc5)n4)c3)cc(C(F)(F)F)c2)cn1 [nilotinib]
The description is as above. In a few lines: as §1
Take MANEA (UniProt Q5SRI9): the log2 fold change is inactive: 0.037.

Regarding LSM5 (UniProt Q9Y4Y9), the log2 fold change was inactive: 0.19.

Regarding LYL1 (UniProt P12980), the log2 fold change is inactive: -0.126.

With MARK2 (UniProt E9PC69), the log2 fold change is inactive: -0.007.

LSM8 (UniProt O95777): the log2 fold change is inactive: 0.

On to MAFF (UniProt Q9ULX9), for which the log2 fold change was inactive: -0.04.

For MAN2B2 (UniProt Q9Y2E5), the log2 fold change is inactive: -0.171.

Turning to MAPK1 (UniProt P28482), the log2 fold change is inactive: -0.019.

With LSM6 (UniProt P62312), the log2 fold change is inactive: 0.01.

With LYSMD3 (UniProt Q7Z3D4), the log2 fold change is inactive: -0.041.

Turning to MADD isoform 2 (UniProt Q8WXG6), the log2 fold change is inactive: -0.174.

Consider LYRM4 (UniProt Q9HD34), for which the log2 fold change is inactive: -0.001.

Regarding MAP7D3 (UniProt Q8IWC1), the log2 fold change is inactive: 0.023.

Consider LYN (UniProt P07948), for which the log2 fold change was inactive: 0.062.

In the case of MAP11 (UniProt Q8WVR3), the log2 fold change is inactive: 0.053.

Turning to LYST (UniProt Q99698), the log2 fold change is inactive: -0.134.

MAD2L1BP isoform 3 (UniProt Q15013): the log2 fold change was inactive: -0.056.

In the case of MACO1 (UniProt Q8N5G2), the log2 fold change was inactive: -0.011.

Turning to LYZ (UniProt P61626), the log2 fold change was inactive: 0.022.

Turning to MAP4K5 (UniProt Q9Y4K4), the log2 fold change is inactive: 0.136.

MAPK6 (UniProt Q16659): the log2 fold change is inactive: -0.015.

In the case of LRRC8B (UniProt Q6P9F7), the log2 fold change was inactive: 0.118.

MAP3K4 isoform 2 (UniProt Q9Y6R4): the log2 fold change was inactive: 0.008.

In the case of LSM10 (UniProt Q969L4), the log2 fold change is inactive: -0.003.

With MAP4K2 (UniProt Q12851), the log2 fold change is inactive: -0.187.

Turning to MAGEA1 (UniProt P43355), the log2 fold change was inactive: -0.052.

Turning to MAP3K20 (UniProt Q9NYL2), the log2 fold change is inactive: -0.216.

As for LRWD1 (UniProt Q9UFC0), the log2 fold change was inactive: -0.21.

Compound in another experiment: Cc1nc(Nc2n[nH]c3c2CN(C(=O)N[C@H](CN(C)C)c2ccccc2)C3(C)C)c2sccc2n1
Described as above. In a few lines: as §1
On to MANEA (UniProt Q5SRI9), for which the log2 fold change is inactive: -0.005.

On to LSM5 (UniProt Q9Y4Y9), for which the log2 fold change is inactive: -0.814.

For LYL1 (UniProt P12980), the log2 fold change was inactive: -0.072.

For the target MARK2 (UniProt E9PC69), the log2 fold change is inactive: -0.451.

Turning to LSM8 (UniProt O95777), the log2 fold change is inactive: 0.022.

On to MAFF (UniProt Q9ULX9), for which the log2 fold change was inactive: -0.005.

In the case of MAN2B2 (UniProt Q9Y2E5), the log2 fold change was inactive: 0.057.

MAPK1 (UniProt P28482): the log2 fold change is inactive: 0.02.

As for LSM6 (UniProt P62312), the log2 fold change was inactive: 0.025.

Take LYSMD3 (UniProt Q7Z3D4): the log2 fold change was inactive: 0.054.

On to MADD isoform 2 (UniProt Q8WXG6), for which the log2 fold change was inactive: -0.059.

As to LYRM4 (UniProt Q9HD34), the log2 fold change is inactive: 0.041.

Consider MAP7D3 (UniProt Q8IWC1), for which the log2 fold change is inactive: 0.167.

For the target LYN (UniProt P07948), the log2 fold change was active: -0.414.

Consider MAP11 (UniProt Q8WVR3), for which the log2 fold change is inactive: 0.292.

On to LYST (UniProt Q99698), for which the log2 fold change is inactive: -0.002.

With MAD2L1BP isoform 3 (UniProt Q15013), the log2 fold change is inactive: -0.067.

On to MACO1 (UniProt Q8N5G2), for which the log2 fold change was inactive: 0.046.

Regarding LYZ (UniProt P61626), the log2 fold change was inactive: 0.098.

As to MAP4K5 (UniProt Q9Y4K4), the log2 fold change is inactive: -0.093.

As for MAPK6 (UniProt Q16659), the log2 fold change was inactive: 0.021.

For LRRC8B (UniProt Q6P9F7), the log2 fold change is inactive: 0.145.

With MAP3K4 isoform 2 (UniProt Q9Y6R4), the log2 fold change is active: 0.221.

For the target LSM10 (UniProt Q969L4), the log2 fold change is inactive: -0.074.

Regarding MAP4K2 (UniProt Q12851), the log2 fold change was inactive: 0.024.

Turning to MAGEA1 (UniProt P43355), the log2 fold change is inactive: -0.036.

Take MAP3K20 (UniProt Q9NYL2): the log2 fold change is inactive: 0.057.

Consider LRWD1 (UniProt Q9UFC0), for which the log2 fold change is inactive: -0.236.

The values above are taken from the supplement of paper PMC10849652.
